Reference: the supplement of paper PMC12823440, “Inhibitors supercharge kinase turnover through native proteolytic circuits” (Nature, 2025)
Structures can show the parent of a compound that is named as a salt. The list shows a part of the results. Hit calls seldom repeat between salt and free forms of one compound.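 Kinases, fused to nanoluciferase, were expressed in K562 cells; luminescence was measured every 4 h from 2 to 18 h as percent of control (DMSO = 100%, positive control = 0%). A time point is decreased if signal falls significantly (2 sigma). Hits were called by the authors by a rule that is not shown; the count of time points alone does not decide it.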

Chains of the proteins cited; added tags and fusions are not shown. Lines headed by an entry give the natural chain unless they say otherwise; changes in a name come on top.
UniProt Q9UM73: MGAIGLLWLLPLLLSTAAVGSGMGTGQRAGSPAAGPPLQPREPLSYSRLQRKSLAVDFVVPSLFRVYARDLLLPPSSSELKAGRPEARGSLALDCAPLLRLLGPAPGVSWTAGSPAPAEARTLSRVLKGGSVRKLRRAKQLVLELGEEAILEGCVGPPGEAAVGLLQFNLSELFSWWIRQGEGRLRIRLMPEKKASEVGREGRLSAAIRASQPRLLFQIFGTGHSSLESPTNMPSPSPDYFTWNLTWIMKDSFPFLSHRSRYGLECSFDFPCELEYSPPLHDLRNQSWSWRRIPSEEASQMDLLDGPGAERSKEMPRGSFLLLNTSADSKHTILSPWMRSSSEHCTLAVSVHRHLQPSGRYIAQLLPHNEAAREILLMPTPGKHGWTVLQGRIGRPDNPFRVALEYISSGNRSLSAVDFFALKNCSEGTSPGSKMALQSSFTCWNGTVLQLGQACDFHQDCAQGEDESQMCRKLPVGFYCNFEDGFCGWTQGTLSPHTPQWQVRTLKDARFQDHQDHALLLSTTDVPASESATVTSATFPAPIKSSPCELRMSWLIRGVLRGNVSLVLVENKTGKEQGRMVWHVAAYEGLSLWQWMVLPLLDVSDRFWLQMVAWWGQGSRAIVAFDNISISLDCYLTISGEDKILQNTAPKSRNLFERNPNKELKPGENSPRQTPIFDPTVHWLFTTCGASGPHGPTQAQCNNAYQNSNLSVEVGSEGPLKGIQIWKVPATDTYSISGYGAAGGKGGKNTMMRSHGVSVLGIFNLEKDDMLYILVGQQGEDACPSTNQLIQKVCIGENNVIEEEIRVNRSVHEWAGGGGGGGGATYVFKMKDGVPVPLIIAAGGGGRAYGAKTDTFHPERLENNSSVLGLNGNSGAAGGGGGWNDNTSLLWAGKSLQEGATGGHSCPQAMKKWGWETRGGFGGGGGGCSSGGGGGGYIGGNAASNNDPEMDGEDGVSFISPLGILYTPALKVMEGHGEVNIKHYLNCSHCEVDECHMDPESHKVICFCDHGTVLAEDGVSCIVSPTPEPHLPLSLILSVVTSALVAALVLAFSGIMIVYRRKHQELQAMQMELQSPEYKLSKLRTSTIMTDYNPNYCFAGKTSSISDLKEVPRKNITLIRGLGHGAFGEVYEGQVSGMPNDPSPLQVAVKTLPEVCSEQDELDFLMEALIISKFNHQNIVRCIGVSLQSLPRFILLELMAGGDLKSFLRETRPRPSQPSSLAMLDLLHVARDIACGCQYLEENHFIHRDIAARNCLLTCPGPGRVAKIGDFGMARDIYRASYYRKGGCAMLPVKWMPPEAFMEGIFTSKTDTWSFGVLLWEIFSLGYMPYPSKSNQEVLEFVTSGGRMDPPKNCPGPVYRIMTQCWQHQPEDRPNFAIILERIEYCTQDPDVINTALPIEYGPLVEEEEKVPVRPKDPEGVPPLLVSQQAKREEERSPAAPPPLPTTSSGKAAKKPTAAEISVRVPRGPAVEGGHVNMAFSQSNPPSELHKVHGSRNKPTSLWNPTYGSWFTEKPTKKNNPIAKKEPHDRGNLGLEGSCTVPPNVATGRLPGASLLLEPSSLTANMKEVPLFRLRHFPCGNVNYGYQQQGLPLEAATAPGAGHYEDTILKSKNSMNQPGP
UniProt P10398: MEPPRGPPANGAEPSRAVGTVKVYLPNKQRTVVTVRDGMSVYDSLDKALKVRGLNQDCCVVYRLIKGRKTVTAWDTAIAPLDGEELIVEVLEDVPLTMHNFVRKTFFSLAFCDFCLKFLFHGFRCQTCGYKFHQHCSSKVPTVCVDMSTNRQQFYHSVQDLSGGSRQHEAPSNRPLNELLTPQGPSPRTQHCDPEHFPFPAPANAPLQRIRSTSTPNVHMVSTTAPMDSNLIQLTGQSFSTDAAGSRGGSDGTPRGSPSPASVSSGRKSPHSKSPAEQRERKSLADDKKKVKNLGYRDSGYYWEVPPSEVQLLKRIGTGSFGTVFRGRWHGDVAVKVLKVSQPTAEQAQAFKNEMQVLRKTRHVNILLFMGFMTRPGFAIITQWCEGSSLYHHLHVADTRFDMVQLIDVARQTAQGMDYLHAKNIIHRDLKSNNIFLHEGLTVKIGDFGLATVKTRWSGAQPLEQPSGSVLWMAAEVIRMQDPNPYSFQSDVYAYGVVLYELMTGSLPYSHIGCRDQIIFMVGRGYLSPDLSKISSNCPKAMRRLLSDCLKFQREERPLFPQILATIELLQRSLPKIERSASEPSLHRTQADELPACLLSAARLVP
UniProt Q96GD4, whole entry: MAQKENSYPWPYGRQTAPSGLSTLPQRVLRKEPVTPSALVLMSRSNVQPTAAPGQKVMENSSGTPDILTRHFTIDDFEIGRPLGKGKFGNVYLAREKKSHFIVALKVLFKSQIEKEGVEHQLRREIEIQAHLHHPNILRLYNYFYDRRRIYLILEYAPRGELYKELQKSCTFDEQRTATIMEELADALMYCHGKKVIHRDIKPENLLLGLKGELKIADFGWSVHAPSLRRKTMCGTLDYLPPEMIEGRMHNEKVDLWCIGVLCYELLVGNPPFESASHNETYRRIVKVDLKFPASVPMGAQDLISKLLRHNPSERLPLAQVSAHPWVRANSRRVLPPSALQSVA
UniProt Q9UQB9: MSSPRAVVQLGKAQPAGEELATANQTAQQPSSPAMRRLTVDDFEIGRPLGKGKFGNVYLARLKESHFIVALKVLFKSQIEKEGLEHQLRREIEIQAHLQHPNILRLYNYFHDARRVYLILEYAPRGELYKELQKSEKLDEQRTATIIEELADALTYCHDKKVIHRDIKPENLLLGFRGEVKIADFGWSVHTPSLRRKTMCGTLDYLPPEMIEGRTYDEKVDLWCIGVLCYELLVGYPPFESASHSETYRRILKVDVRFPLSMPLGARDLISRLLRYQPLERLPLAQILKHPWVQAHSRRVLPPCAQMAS
UniProt P51451: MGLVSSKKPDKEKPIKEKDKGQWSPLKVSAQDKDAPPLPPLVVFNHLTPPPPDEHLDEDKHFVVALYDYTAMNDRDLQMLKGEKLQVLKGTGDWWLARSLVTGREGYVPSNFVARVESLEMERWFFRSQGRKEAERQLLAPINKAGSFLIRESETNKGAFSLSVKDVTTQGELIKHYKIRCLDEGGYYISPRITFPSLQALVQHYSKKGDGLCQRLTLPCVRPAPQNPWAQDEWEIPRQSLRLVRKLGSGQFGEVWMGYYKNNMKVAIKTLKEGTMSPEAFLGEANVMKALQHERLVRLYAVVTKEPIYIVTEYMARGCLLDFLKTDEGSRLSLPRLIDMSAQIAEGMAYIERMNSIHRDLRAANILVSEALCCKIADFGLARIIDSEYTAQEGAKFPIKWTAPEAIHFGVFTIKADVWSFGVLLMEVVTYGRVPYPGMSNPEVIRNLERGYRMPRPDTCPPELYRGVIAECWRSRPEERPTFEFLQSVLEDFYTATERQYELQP
UniProt P51813: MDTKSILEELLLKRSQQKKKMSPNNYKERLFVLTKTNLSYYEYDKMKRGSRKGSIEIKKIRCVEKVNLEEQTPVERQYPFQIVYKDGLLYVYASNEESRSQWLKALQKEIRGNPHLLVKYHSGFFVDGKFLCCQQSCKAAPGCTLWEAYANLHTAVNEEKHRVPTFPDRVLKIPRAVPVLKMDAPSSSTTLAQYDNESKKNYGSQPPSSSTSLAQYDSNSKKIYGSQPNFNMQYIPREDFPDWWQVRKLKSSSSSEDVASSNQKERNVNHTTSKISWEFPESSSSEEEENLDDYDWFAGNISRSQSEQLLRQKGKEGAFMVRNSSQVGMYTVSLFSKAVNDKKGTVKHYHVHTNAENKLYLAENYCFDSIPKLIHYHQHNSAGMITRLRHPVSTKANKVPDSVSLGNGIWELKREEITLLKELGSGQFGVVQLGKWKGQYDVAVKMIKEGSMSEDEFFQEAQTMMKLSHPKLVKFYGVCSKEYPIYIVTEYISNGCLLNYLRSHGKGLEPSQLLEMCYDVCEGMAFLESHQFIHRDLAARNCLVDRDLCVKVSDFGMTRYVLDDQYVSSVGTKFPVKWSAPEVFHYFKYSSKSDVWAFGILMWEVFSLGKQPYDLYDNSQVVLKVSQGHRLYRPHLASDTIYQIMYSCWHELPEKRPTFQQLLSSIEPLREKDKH
UniProt Q06187: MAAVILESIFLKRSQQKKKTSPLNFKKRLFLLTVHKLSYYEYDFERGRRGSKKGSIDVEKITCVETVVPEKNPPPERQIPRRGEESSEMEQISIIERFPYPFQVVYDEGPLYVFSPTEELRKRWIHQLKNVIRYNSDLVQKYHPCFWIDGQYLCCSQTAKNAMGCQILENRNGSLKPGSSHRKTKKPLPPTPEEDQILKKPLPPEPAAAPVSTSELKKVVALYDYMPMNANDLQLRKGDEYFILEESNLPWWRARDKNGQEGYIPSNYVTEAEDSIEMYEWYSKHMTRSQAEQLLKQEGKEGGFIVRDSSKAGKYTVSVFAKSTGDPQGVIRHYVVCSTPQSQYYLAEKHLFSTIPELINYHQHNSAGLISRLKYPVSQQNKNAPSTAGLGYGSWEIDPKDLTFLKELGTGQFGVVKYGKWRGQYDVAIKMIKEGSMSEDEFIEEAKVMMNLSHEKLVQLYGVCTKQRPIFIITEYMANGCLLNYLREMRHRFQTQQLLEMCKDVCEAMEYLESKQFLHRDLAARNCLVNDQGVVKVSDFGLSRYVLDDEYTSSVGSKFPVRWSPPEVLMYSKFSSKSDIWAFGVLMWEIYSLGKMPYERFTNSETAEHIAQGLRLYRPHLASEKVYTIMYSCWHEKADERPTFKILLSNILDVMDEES
UniProt Q9UQM7, whole entry: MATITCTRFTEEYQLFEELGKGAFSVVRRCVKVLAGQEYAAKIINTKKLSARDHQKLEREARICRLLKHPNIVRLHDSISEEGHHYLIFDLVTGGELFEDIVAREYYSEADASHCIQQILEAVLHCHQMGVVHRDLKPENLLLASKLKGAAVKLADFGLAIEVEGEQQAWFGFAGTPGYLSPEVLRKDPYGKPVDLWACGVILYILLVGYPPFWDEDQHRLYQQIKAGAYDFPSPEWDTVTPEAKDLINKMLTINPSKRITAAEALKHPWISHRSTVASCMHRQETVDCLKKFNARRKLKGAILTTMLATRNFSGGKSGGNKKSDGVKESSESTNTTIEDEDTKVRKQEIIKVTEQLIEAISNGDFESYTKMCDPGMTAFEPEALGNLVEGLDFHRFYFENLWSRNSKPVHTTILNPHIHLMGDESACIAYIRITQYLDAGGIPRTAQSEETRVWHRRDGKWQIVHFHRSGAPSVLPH
UniProt Q13555: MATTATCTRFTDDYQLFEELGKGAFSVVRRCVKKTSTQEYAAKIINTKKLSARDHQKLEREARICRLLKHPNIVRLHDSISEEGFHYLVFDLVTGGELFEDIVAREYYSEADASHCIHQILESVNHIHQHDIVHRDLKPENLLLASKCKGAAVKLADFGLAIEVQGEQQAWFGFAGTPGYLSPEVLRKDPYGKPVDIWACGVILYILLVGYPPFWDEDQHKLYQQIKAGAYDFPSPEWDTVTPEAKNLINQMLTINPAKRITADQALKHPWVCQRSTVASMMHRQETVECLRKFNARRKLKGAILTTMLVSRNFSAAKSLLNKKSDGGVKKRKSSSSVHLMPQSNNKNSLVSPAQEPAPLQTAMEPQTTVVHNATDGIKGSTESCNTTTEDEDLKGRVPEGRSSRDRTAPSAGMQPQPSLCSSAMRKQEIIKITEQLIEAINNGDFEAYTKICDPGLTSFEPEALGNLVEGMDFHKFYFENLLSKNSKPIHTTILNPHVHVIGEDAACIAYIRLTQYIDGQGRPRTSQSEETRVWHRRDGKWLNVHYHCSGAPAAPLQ
UniProt P11802: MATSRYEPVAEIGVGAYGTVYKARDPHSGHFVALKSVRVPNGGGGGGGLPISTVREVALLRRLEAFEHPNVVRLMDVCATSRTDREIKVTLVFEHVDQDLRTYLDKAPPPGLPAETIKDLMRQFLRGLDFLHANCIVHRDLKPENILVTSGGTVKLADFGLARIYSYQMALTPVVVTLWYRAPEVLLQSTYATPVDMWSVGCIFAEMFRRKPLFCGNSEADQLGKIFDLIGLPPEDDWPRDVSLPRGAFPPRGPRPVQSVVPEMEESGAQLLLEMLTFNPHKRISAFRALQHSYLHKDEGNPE
UniProt Q00534, whole entry: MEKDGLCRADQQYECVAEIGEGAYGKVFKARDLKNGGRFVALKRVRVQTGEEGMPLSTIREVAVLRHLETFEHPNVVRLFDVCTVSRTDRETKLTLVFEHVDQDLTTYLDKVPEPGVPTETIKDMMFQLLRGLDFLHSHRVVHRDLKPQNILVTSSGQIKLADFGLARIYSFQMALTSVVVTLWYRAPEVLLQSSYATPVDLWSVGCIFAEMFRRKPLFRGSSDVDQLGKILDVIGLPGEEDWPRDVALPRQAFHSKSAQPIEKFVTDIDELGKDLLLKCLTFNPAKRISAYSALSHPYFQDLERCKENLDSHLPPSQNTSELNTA

What was measured:
Experiment in all cases: kinase-Nluc reporter destabilization hit call (1 = scored as downregulated) (binary); higher = compound decreases kinase abundance
Conditions in all cases: K562, 2-18 h
ABL1 = ABL1 (UniProt P00519)
AKT1 = AKT1 (UniProt P31749)
ALK = ALK (UniProt Q9UM73)
ARAF = ARAF (UniProt P10398)
AURKA = AURKA (UniProt O14965)
AURKB = AURKB (UniProt Q96GD4)
AURKC = AURKC (UniProt Q9UQB9)
BLK = BLK (UniProt P51451)
BMX = BMX (UniProt P51813)
BRAF = BRAF (UniProt P15056)
BRAF_V600E = test system: BRAF_V600E
BTK = BTK (UniProt Q06187)
CAMK2A = CAMK2A (UniProt Q9UQM7)
CAMK2G = CAMK2G (UniProt Q13555)
CDK10 = CDK10 (UniProt Q15131)
CDK2 = CDK2 (UniProt P24941)
CDK3 = CDK3 (UniProt Q00526)
CDK4 = CDK4 (UniProt P11802)
CDK5 = CDK5 (UniProt Q00535)
CDK6 = CDK6 (UniProt Q00534)

SMILES	kinase-Nluc reporter destabilization hit call (ABL1; 10 µM)	kinase-Nluc reporter destabilization hit call (AKT1; 10 µM)	kinase-Nluc reporter destabilization hit call (ALK; 10 µM)	kinase-Nluc reporter destabilization hit call (ARAF; 10 µM)	kinase-Nluc reporter destabilization hit call (AURKA; 10 µM)	kinase-Nluc reporter destabilization hit call (AURKB; 10 µM)	kinase-Nluc reporter destabilization hit call (AURKC; 10 µM)	kinase-Nluc reporter destabilization hit call (BLK; 10 µM)	kinase-Nluc reporter destabilization hit call (BMX; 10 µM)	kinase-Nluc reporter destabilization hit call (BRAF; 10 µM)	kinase-Nluc reporter destabilization hit call (BRAF_V600E; 10 µM)	kinase-Nluc reporter destabilization hit call (BTK; 10 µM)	kinase-Nluc reporter destabilization hit call (CAMK2A; 10 µM)	kinase-Nluc reporter destabilization hit call (CAMK2G; 10 µM)	kinase-Nluc reporter destabilization hit call (CDK10; 10 µM)	kinase-Nluc reporter destabilization hit call (CDK2; 10 µM)	kinase-Nluc reporter destabilization hit call (CDK3; 10 µM)	kinase-Nluc reporter destabilization hit call (CDK4; 10 µM)	kinase-Nluc reporter destabilization hit call (CDK5; 10 µM)	kinase-Nluc reporter destabilization hit call (CDK6; 10 µM)	kinase-Nluc reporter destabilization hit call (ABL1; 2.5 µM)	kinase-Nluc reporter destabilization hit call (AKT1; 2.5 µM)	kinase-Nluc reporter destabilization hit call (ALK; 2.5 µM)	kinase-Nluc reporter destabilization hit call (ARAF; 2.5 µM)	kinase-Nluc reporter destabilization hit call (AURKA; 2.5 µM)	kinase-Nluc reporter destabilization hit call (AURKB; 2.5 µM)	kinase-Nluc reporter destabilization hit call (AURKC; 2.5 µM)	kinase-Nluc reporter destabilization hit call (BLK; 2.5 µM)	kinase-Nluc reporter destabilization hit call (BMX; 2.5 µM)	kinase-Nluc reporter destabilization hit call (BRAF; 2.5 µM)	kinase-Nluc reporter destabilization hit call (BRAF_V600E; 2.5 µM)	kinase-Nluc reporter destabilization hit call (BTK; 2.5 µM)	kinase-Nluc reporter destabilization hit call (CAMK2A; 2.5 µM)	kinase-Nluc reporter destabilization hit call (CAMK2G; 2.5 µM)	kinase-Nluc reporter destabilization hit call (CDK10; 2.5 µM)	kinase-Nluc reporter destabilization hit call (CDK2; 2.5 µM)	kinase-Nluc reporter destabilization hit call (CDK3; 2.5 µM)	kinase-Nluc reporter destabilization hit call (CDK4; 2.5 µM)	kinase-Nluc reporter destabilization hit call (CDK5; 2.5 µM)	kinase-Nluc reporter destabilization hit call (CDK6; 2.5 µM)
COc1ccc2c(c1)C(c1ccc(F)cc1)=C(CN1CCCC1)CO2 [AX-024 hydrochloride]	inactive: 0	inactive: 0	inactive: 0	inactive: 0	inactive: 0	inactive: 0	inactive: 0	inactive: 0	inactive: 0	inactive: 0	inactive: 0	inactive: 0	inactive: 0	inactive: 0	inactive: 0	inactive: 0	inactive: 0	inactive: 0	inactive: 0	inactive: 0	–	–	–	–	–	–	–	–	–	–	–	–	–	–	–	–	–	–	–	–
CNC(=O)c1ccccc1Nc1cc(Nc2ccc(N3CCOCC3)cc2OC)ncc1C(F)(F)F [PND-1186 (hydrochloride)]	inactive: 0	inactive: 0	inactive: 0	inactive: 0	inactive: 0	inactive: 0	inactive: 0	inactive: 0	inactive: 0	inactive: 0	inactive: 0	inactive: 0	inactive: 0	inactive: 0	inactive: 0	inactive: 0	inactive: 0	inactive: 0	inactive: 0	inactive: 0	–	–	–	–	–	–	–	–	–	–	–	–	–	–	–	–	–	–	–	–
N#CCNC(=O)c1ccc(-c2ccnc(Nc3ccc(N4CCOCC4)cc3)n2)cc1 [Momelotinib]	inactive: 0	inactive: 0	inactive: 0	inactive: 0	inactive: 0	inactive: 0	inactive: 0	inactive: 0	inactive: 0	inactive: 0	inactive: 0	inactive: 0	inactive: 0	inactive: 0	inactive: 0	inactive: 0	inactive: 0	inactive: 0	inactive: 0	inactive: 0	–	–	–	–	–	–	–	–	–	–	–	–	–	–	–	–	–	–	–	–
CNC(=O)c1cc(Oc2ccc(NC(=O)Nc3ccc(Cl)c(C(F)(F)F)c3)c(F)c2)ccn1 [Regorafenib]	–	–	–	–	–	–	–	–	–	–	–	–	–	–	–	–	–	–	–	–	inactive: 0	inactive: 0	inactive: 0	inactive: 0	inactive: 0	inactive: 0	inactive: 0	inactive: 0	inactive: 0	inactive: 0	inactive: 0	inactive: 0	inactive: 0	inactive: 0	inactive: 0	inactive: 0	inactive: 0	inactive: 0	inactive: 0	inactive: 0
CC(=O)Nc1cccc(-n2c(=O)n(C3CC3)c(=O)c3c(Nc4ccc(I)cc4F)n(C)c(=O)c(C)c32)c1 [Trametinib]	inactive: 0	inactive: 0	inactive: 0	inactive: 0	inactive: 0	inactive: 0	inactive: 0	inactive: 0	inactive: 0	active: 1	inactive: 0	inactive: 0	inactive: 0	inactive: 0	inactive: 0	inactive: 0	inactive: 0	inactive: 0	inactive: 0	inactive: 0	–	–	–	–	–	–	–	–	–	–	–	–	–	–	–	–	–	–	–	–
COc1ncc(F)cc1CNc1ccc(Cc2c[nH]c3ncc(C)cc23)c(F)n1	inactive: 0	inactive: 0	inactive: 0	inactive: 0	inactive: 0	inactive: 0	inactive: 0	inactive: 0	inactive: 0	inactive: 0	inactive: 0	inactive: 0	inactive: 0	inactive: 0	inactive: 0	inactive: 0	inactive: 0	inactive: 0	inactive: 0	inactive: 0	–	–	–	–	–	–	–	–	–	–	–	–	–	–	–	–	–	–	–	–
CN1CCCN(C(=O)c2cccc(-c3ccc(/C=C4/C(=O)Nc5ccc(Cl)cc54)o3)c2)CC1	–	–	–	–	–	–	–	–	–	–	–	–	–	–	–	–	–	–	–	–	inactive: 0	inactive: 0	inactive: 0	inactive: 0	inactive: 0	inactive: 0	inactive: 0	inactive: 0	inactive: 0	inactive: 0	inactive: 0	inactive: 0	inactive: 0	inactive: 0	inactive: 0	inactive: 0	inactive: 0	inactive: 0	inactive: 0	inactive: 0
O=C1Nc2ccccc2/C1=C/c1ccccn1 [(E/Z)-GSK-3β inhibitor 1]	inactive: 0	inactive: 0	inactive: 0	inactive: 0	inactive: 0	inactive: 0	inactive: 0	inactive: 0	inactive: 0	inactive: 0	inactive: 0	inactive: 0	inactive: 0	inactive: 0	inactive: 0	inactive: 0	inactive: 0	inactive: 0	inactive: 0	inactive: 0	–	–	–	–	–	–	–	–	–	–	–	–	–	–	–	–	–	–	–	–
